# Experimental data: publication PMC9794804
# Protein sequences, listed by entry. Tags and fused reporters are not part of them.
# UniProt P42227: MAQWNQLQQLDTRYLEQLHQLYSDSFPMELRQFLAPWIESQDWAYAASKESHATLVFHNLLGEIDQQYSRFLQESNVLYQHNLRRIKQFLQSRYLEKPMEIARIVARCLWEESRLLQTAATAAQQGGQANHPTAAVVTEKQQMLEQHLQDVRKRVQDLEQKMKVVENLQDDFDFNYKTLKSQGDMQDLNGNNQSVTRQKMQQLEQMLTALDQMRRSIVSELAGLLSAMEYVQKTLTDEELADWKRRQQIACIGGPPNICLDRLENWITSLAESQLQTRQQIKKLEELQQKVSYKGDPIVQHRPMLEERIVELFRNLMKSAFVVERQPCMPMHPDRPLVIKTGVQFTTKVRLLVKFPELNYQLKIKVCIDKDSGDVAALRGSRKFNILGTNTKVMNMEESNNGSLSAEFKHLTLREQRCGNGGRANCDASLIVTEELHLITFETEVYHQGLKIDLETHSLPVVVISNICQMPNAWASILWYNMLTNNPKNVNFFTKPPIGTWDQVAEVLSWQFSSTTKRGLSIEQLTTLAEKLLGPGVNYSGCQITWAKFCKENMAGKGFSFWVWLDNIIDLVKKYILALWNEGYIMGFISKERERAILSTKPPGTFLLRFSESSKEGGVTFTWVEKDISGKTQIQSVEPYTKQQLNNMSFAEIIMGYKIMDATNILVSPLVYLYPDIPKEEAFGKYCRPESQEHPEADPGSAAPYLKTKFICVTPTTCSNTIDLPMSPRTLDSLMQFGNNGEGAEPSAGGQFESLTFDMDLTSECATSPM
# These are yes or no findings as the source states them, for the method shown. In cells and extracts the contact can be indirect. Some binding calls cover weakened binding; strength is not graded here.
# Legend:
# [1] = target: T1, βPIX (mouse (endogenous in RAW 264.7)) (UniProt Q9ES28); assay: co-IP; anti-βPIX antibody IP from lysates of PBS-treated (no rmCIRP) RAW 264.7 cells; protein A/G magnetic beads; Western blot for STAT3; lysis buffer 10 mM Tris-HCl pH 7.5, 100 mM NaCl, 1 mM EDTA, 1 mM EGTA, 1% Triton X-100
# T1 sequence: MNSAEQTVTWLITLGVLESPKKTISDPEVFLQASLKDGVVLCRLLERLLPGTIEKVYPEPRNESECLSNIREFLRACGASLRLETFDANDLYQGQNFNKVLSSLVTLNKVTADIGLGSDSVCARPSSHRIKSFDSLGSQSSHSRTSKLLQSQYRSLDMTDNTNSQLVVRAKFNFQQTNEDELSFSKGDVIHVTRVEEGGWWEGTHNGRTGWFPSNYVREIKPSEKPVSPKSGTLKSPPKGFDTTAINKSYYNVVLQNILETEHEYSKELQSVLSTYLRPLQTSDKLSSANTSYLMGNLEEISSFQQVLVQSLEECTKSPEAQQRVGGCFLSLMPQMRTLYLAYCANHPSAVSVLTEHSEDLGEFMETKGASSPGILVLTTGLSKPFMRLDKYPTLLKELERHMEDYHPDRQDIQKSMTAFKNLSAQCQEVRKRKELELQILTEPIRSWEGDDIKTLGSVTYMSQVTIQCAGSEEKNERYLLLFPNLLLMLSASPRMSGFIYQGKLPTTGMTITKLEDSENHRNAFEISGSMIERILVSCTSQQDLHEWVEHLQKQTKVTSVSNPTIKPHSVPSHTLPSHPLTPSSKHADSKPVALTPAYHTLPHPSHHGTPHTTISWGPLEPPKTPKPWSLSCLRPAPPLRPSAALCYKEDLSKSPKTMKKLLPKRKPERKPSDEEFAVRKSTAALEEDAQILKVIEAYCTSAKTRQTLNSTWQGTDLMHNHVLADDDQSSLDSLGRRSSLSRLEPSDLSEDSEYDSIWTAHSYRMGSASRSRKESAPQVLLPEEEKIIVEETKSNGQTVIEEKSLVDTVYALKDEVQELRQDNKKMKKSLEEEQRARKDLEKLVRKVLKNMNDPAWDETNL
# [2] = target: T1, βPIX (mouse (endogenous in RAW 264.7)); assay: co-IP; anti-βPIX antibody IP from lysates of RAW 264.7 cells treated with rmCIRP (1 µg/ml, 24 h), with or without stattic (3 µM); protein A/G magnetic beads; Western blot for STAT3; lysis buffer 10 mM Tris-HCl pH 7.5, 100 mM NaCl, 1 mM EDTA, 1 mM EGTA, 1% Triton X-100
substance,measurement,setting,value
STAT3 (from UniProt P42227 1-770),binding,[1],no binding (condition: PBS-treated cells (without rmCIRP))
same,binding,[2],binds
